We go through one substance from publication doi:10.1101/2024.03.15.585280.

Amino acid sequences for entries named in this document (tags omitted).
UniProt P49597: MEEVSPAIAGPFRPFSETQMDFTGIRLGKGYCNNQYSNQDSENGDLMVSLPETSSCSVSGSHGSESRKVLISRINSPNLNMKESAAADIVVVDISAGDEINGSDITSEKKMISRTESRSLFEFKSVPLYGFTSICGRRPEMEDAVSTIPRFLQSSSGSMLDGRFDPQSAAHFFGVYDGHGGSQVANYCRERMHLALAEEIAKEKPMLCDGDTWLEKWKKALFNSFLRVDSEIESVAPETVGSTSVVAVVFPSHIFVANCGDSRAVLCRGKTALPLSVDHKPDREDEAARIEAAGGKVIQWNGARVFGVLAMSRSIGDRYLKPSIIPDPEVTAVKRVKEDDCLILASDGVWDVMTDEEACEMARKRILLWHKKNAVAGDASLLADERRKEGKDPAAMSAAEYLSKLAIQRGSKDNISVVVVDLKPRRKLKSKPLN

The test concerns the target T1, AtOST1-BD (Arabidopsis) (UniProt Q940H6).
T1 sequence: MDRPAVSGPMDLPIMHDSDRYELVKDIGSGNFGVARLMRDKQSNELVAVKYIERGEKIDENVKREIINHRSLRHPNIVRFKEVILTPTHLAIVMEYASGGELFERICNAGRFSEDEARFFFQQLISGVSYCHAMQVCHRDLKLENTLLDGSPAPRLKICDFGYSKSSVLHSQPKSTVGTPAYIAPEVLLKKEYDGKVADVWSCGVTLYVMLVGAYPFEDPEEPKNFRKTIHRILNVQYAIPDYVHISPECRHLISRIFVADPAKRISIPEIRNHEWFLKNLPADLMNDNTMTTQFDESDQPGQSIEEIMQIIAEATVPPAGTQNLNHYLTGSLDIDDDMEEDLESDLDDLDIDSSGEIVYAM
In words: two-hybrid.

No constants are given. Whether binding was seen depends on the method and setting. Some results given as binding are weak or reduced against the parent protein; the word gives no strength. Tags and fused reporters may be left off the sequences shown.

Take “AtABI1-AD (from UniProt P49597 1-434) (enzyme)”: the binding entry is recorded as “binds”.
